Data: paper PMC7819943, “Rice protein-binding microarrays: a tool to detect cis-acting elements near promoter regions in rice”
The list shows a part of the results.

Sequences of proteins named here, by UniProt entry; tags and fusion partners are left off.
UniProt Q0JBA9, entry or part of it: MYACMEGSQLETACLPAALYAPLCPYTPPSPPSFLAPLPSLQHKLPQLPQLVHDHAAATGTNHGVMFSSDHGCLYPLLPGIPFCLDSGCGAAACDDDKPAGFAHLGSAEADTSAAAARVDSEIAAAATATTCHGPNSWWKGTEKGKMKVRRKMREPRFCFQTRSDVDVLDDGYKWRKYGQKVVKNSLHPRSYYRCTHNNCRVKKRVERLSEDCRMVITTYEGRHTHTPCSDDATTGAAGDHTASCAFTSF

Molecular target: OsWRKY34 (Oryza sativa, UniProt Q0JBA9 1-250)
Assay: protein-binding microarray (RPBM); PBS, 2% BSA, 51.3 ng/ul salmon testes DNA, 50 uM zinc acetate, 200 nM TF, 25 C, 1 h; high values mean tight binding
Details: protein: recombinant; tags: N-terminal polyhistidine and DsRed monomer fusion (pET32a); label: CyDye5-dUTP incorporated in the synthesized complementary strand; 3' TTTTT single-stranded linker to array surface; dsDNA, one strand shown
Method in brief: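 The binding signal is fluorescence intensity per feature, in arbitrary units, read on an Axon 4000B scanner. Polyhistidine- and DsRed-tagged transcription factors (N-terminal fusions) from E. coli BL21-CodonPlus were purified on Ni–NTA and applied at 200 nM for 1 h at 25 °C to a double-stranded, BSA-blocked custom Agilent array in buffer with 50 µM zinc acetate.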

| Sequence | binding signal |
| --- | --- |
| TCTTCACCGGTTACCATTTCATATCCCGATCGCTGCTACTCGGAGTCACCTAGTGCAG | 13200 fluorescence intensity (a.u.) |
| TACATATAAAACGCTCGCCGCCGTTCGCCATTCGTTTCCACGGAGTCACCTAGTGCAG | 9080 fluorescence intensity (a.u.) |
| ACCTGTCAGTGGGCCCCACCCCGCACTGGACCCACCTATCCGGAGTCACCTAGTGCAG | 9250 fluorescence intensity (a.u.) |
| CCGCCGTTGACGAACTTGGTGAGCGTCTTCTTGCCCTTGGCGGAGTCACCTAGTGCAG | 9030 fluorescence intensity (a.u.) |
| TAAGTCTATTTTTGGTCCCTCAACTCTGTGGGTTGTGTTTCGGAGTCACCTAGTGCAG | 9660 fluorescence intensity (a.u.) |
| TATTCCCTCACACTATTTATTGTATGCTTCACCACTTTACCGGAGTCACCTAGTGCAG | 8220 fluorescence intensity (a.u.) |
| CCATCTATCATCCGCATCTCAGCTCGTTGCCCAGCATCTTCGGAGTCACCTAGTGCAG | 10100 fluorescence intensity (a.u.) |
| CCCTTCTTTTCCGTTGCCCTATCACTAGATCTGGTCACTACGGAGTCACCTAGTGCAG | 9520 fluorescence intensity (a.u.) |
| TCTCCTGTCGTTGCCACACCGTCTTCTCTCTTCTCCTCCGCGGAGTCACCTAGTGCAG | 9320 fluorescence intensity (a.u.) |
| ATGTGCTGTAAATTAAATCATGGTGTTCATATTTTGGCCCCGGAGTCACCTAGTGCAG | 8060 fluorescence intensity (a.u.) |
| TCCCAACCACACCCACCCACCCGCCCAATCCATCCACCAACGGAGTCACCTAGTGCAG | 8860 fluorescence intensity (a.u.) |
| ACTGCTTATTTTTTTCGTCTCCTCCATGCTCCTGCTAGTTCGGAGTCACCTAGTGCAG | 10300 fluorescence intensity (a.u.) |
| GGTATGACATATCTAGTTTTACGGTTGGGGATGTCTATGTCGGAGTCACCTAGTGCAG | 9240 fluorescence intensity (a.u.) |
| CAAGTTGCATTGTTCCTGTGGTGTTTTACTAACTTATTATCGGAGTCACCTAGTGCAG | 14700 fluorescence intensity (a.u.) |
| TGTTTTTCCATTTCTCGTTACTTGGTTGTTTAATTTGTTTCGGAGTCACCTAGTGCAG | 15900 fluorescence intensity (a.u.) |
| ACCCTATTCCCATGGTCTCTCTCTCCATCATCTAAAGGTTCGGAGTCACCTAGTGCAG | 10500 fluorescence intensity (a.u.) |
| TTTTGTAACACGCTTTGTAGGCCTTCGCTAATCCTCATGTCGGAGTCACCTAGTGCAG | 8570 fluorescence intensity (a.u.) |
| CCGGACCACGCCCACCACCCAAAACCCTCCGGCTCATTCTCGGAGTCACCTAGTGCAG | 12300 fluorescence intensity (a.u.) |
| CGCTCGCGTCGCGCCCATCTCCACCAATCCACCACCGCCACGGAGTCACCTAGTGCAG | 11100 fluorescence intensity (a.u.) |
| TCCCCACTCGGCAGCTCGCCATTCCACCACCACCGCGCCGCGGAGTCACCTAGTGCAG | 8090 fluorescence intensity (a.u.) |
| CATCAAAAATTTTATACACACATAAACTTTCAACTTTTCCCGGAGTCACCTAGTGCAG | 9960 fluorescence intensity (a.u.) |

| Sequence | binding signal |
| --- | --- |
| GAGTTCTGTTATTCCCTTTGTAATCTGTTGTTTCTATCATCGGAGTCACCTAGTGCAG | 8540 fluorescence intensity (a.u.) |
| CAGGTGGTATTTGTATGGTGATTAATTTACTACTTGTGTACGGAGTCACCTAGTGCAG | 9200 fluorescence intensity (a.u.) |
| GGCGTGGGGTGGTTGATCTCCTCCTCCTCCTCTTCGTCGGCGGAGTCACCTAGTGCAG | 8740 fluorescence intensity (a.u.) |
| GGAGATCATCCTCGCCCCGCCGCCGCCGCCGCCGCCGCCGCGGAGTCACCTAGTGCAG | 8350 fluorescence intensity (a.u.) |
| GTCTCTATTTTTATGTGCACTTGTTGGATGGAGCGGTCAACGGAGTCACCTAGTGCAG | 8430 fluorescence intensity (a.u.) |
| AGCTGCTAATTACTGTACACCTGTCACCTCTGGCAGCAGACGGAGTCACCTAGTGCAG | 8760 fluorescence intensity (a.u.) |
| TTTATGGTTGCCACTTTTCTTGTTTTAATATGTTATTTCTCGGAGTCACCTAGTGCAG | 8860 fluorescence intensity (a.u.) |
| CTGGAATGAGTGGTGGTTGATTGTTTAGTGTTTACTGTTCCGGAGTCACCTAGTGCAG | 8470 fluorescence intensity (a.u.) |
| TTGCTGCCCATTTCTATTCCACACTTGCATGCAACTCAATCGGAGTCACCTAGTGCAG | 14700 fluorescence intensity (a.u.) |
| CCTCTAAAGCTGTACTCTGCAAAACATGCATCTACTCATTCGGAGTCACCTAGTGCAG | 8720 fluorescence intensity (a.u.) |
| CAGCCCACAACCACATCGACCCTATATAAACCGACGAGGACGGAGTCACCTAGTGCAG | 8560 fluorescence intensity (a.u.) |
| ACATCACCACCCACCTCACCCTGCCGCTCCCGAGCGCGATCGGAGTCACCTAGTGCAG | 9140 fluorescence intensity (a.u.) |
| TAACTATCCTCTATTTCTTTATTTGACCTATAGTGTAGATCGGAGTCACCTAGTGCAG | 8510 fluorescence intensity (a.u.) |
| TATTTTCTTCCTCTATTTTATTTCTTCAGTACCTTCTAAGCGGAGTCACCTAGTGCAG | 8660 fluorescence intensity (a.u.) |
| GTCCATCACCGAACGAACAGCCCACAGAAACCCCAAAAACCGGAGTCACCTAGTGCAG | 8220 fluorescence intensity (a.u.) |
| ATCTTACGGTATCCATTATCTATTTACGTACATTTTCTTTCGGAGTCACCTAGTGCAG | 8180 fluorescence intensity (a.u.) |
| CGAAAATGGTTTGCTTCGTAGGATCGTTATTTTGCTTGTTCGGAGTCACCTAGTGCAG | 10800 fluorescence intensity (a.u.) |
| CTATTTGCAACCAAATTTGTCATGTTCTTTTTTTTTACATCGGAGTCACCTAGTGCAG | 11400 fluorescence intensity (a.u.) |
| TGTGGTGCGTCTCCTCGTGCAGTTTTTGCCCTTGATTTGACGGAGTCACCTAGTGCAG | 11800 fluorescence intensity (a.u.) |
| GATTTGGTGGGTTATAATTTTATAGTAAGAGGGGATTTTACGGAGTCACCTAGTGCAG | 16100 fluorescence intensity (a.u.) |
| TATAAATACGTGATGTTTAATCTTCCATTTTCAATCCAATCGGAGTCACCTAGTGCAG | 8030 fluorescence intensity (a.u.) |

Two records drawn at random from those above, as already listed:

| Sequence | binding signal |
| --- | --- |
| TTTATGGTTGCCACTTTTCTTGTTTTAATATGTTATTTCTCGGAGTCACCTAGTGCAG | 8860 fluorescence intensity (a.u.) |
| TGTGGTGCGTCTCCTCGTGCAGTTTTTGCCCTTGATTTGACGGAGTCACCTAGTGCAG | 11800 fluorescence intensity (a.u.) |
